This assay addresses Lamtor1 (endogenous, mouse BMDCs) (mouse (endogenous in BMDCs)) (UniProt Q9CQ22). Nature of the assay: affinity purification with mass spectrometry; immunoprecipitation with anti-Lamtor1 antibody from lysates of WT and Lamtor1-/- BMDCs (50 mM Tris-HCl pH 7.4, 150 mM NaCl, 1 mM EDTA, 5% glycerol, 2% n-octyl-b-D-glucopyranoside, 1% NP-40), LC-MS/MS.

The chains behind the UniProt entries cited, without tags or fusion partners.
UniProt Q9CQ22: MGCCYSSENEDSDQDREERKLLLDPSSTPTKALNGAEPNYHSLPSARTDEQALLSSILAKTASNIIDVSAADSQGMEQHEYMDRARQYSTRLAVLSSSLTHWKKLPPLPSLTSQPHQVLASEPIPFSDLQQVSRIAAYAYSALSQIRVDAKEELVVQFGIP
UniProt P97434: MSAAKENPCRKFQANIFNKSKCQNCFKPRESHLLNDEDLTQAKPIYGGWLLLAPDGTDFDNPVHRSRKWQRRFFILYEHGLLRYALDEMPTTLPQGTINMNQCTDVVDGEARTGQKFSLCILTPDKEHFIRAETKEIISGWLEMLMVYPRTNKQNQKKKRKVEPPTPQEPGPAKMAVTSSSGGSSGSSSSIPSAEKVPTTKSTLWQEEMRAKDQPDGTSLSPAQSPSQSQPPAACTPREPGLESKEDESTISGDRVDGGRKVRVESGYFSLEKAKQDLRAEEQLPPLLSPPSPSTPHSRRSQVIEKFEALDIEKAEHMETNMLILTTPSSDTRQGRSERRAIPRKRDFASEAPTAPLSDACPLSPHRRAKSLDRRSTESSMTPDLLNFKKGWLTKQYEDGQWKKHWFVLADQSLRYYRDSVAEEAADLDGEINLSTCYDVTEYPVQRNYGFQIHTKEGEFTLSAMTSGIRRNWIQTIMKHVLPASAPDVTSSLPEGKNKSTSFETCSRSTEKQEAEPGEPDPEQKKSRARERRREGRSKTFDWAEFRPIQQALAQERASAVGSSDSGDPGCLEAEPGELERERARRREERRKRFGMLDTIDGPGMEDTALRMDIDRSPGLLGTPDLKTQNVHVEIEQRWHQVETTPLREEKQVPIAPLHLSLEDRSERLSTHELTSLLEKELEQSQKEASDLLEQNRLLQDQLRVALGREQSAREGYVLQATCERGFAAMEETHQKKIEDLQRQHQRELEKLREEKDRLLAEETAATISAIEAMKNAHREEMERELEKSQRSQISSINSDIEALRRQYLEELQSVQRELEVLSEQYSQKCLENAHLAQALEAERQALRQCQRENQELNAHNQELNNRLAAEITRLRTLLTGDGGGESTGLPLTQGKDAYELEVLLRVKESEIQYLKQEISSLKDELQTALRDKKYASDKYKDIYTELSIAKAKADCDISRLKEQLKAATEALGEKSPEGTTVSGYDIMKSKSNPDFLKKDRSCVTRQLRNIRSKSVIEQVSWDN

Results are given in words; binding and its absence hold for the method and conditions named. In cells and extracts the contact can be indirect. A yes stands for co-enrichment or nearness to the bait. Other partners may have been found.

Take “MPRIP (endogenous, mouse BMDCs) (from UniProt P97434 1-1024)”: the binding entry is on record as “binds”.
